From paper PMC12931196, “Vm–MSI: a Vancomycin–Antimicrobial Peptide Conjugate Combating Resistant Bacteria and Broadening the Antimicrobial Spectrum” (Advanced Science, 2025)

System: VRSA 52
Assay: Mouse skin infection model
Type: in vivo, BALB/c mice
Settings: topical 2 mg kg^−1 ×3; observed to day 12

O=C(O)c1cn(C2CC2)c2cc(N3CCNCC3)c(F)cc2c1=O [ciprofloxacin]
skin wound healing: completely healed by 12 days post‐infection
